From patent US20120220039A1, “METHOD AND SYSTEM FOR DETECTING RESIDUAL POISON IN HUMAN BODY” (THE HONG KONG UNIVERSITY OF SCIENCE AND TECHNOLOGY, priority 2009, published 2012)

Columns and labels:
[1] = Sensitivity (LOD/LOQ) of HPLC-Chip-MS/MS method, blank hair sample spiked with drug standard; set-up: species or system human
[2] = Sensitivity (LOD/LOQ) of conventional GC-MS/MS method; conditions: Table 1
[3] = blank hair sample spiked with standard

| Molecule | Limit of detection (LOD) ([1]; Table 1) [pg/mg] | Limit of quantification (LOQ) ([1]; Table 1) [pg/mg] | Limit of detection (LOD) [1, 3] [pg/mg] | Limit of quantification (LOQ) [1, 3] [pg/mg] | Limit of detection (LOD) [2] [pg/mg] | Limit of quantification (LOQ) [2] [pg/mg] |
| --- | --- | --- | --- | --- | --- | --- |
| CN[C@@H](C)Cc1ccccc1 [Methamphetamine] | 0.1 | 0.1 | 2.5 | 5 | 100 | 500 |
| Ketamine | 0.1 | 0.1 | 0.1 | 1 | 200 | 500 |
| Methadone | 0.1 | 0.1 | 0.1 | 0.5 | 200 | 800 |
| CC(=O)[C@]1(O)C=C[C@H]2[C@H]3Cc4ccc(O)c5c4[C@@]2(CCN3C)[C@H]1O5 [6-acetylmorphine] | 2 | 2 | 2 | 10 | 30 | 500 |
| CN1[C@H]2CC[C@@H]1[C@@H](C(=O)O)[C@@H](OC(=O)c1ccccc1)C2 [Benzoylecgonine] | 0.1 | 0.1 | 0.1 | 0.5 | 15 | 50 |
